Measurements: article doi:10.1101/396861
No constants are given. Whether binding was seen depends on the method and setting. Some results given as binding are weak or reduced against the parent protein; the word gives no strength. Sequences can lack the tags named with a protein.

Tests used:
Experiment in all cases: two-hybrid
[1] = molecular target: T1, AtCPL1 (C-Terminal Phosphatase Like 1), yeast two-hybrid bait (Arabidopsis thaliana) (UniProt Q5YDB6)
T1 sequence: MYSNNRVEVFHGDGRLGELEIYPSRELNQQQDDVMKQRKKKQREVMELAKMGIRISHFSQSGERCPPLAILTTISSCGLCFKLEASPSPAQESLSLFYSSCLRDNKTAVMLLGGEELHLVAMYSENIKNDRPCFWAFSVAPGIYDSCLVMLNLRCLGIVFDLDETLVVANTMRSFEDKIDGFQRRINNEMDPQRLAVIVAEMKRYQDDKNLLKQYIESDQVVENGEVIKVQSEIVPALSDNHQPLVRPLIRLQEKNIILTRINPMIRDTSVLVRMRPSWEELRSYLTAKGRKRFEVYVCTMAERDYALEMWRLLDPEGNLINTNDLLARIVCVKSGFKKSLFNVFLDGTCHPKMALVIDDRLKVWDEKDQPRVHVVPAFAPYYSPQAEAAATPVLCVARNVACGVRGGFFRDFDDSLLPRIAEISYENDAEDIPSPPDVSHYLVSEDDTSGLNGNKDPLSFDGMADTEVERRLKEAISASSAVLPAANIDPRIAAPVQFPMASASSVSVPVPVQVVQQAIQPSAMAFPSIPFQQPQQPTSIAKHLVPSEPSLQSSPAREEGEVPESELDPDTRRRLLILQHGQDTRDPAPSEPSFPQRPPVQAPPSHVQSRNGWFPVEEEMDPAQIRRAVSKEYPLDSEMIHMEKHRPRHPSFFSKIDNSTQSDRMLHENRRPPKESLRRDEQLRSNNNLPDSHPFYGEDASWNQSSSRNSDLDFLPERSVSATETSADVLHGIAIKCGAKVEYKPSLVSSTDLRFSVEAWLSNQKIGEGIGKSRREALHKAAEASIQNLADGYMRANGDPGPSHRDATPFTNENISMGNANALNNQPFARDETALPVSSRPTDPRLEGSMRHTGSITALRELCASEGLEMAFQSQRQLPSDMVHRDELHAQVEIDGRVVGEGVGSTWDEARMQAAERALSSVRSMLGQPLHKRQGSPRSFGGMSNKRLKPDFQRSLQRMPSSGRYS

[2] = molecular target: T2, AtMPK3 (Arabidopsis thaliana mitogen-activated protein kinase-3), yeast two-hybrid fusion (Arabidopsis thaliana) (UniProt Q39023)
T2 sequence: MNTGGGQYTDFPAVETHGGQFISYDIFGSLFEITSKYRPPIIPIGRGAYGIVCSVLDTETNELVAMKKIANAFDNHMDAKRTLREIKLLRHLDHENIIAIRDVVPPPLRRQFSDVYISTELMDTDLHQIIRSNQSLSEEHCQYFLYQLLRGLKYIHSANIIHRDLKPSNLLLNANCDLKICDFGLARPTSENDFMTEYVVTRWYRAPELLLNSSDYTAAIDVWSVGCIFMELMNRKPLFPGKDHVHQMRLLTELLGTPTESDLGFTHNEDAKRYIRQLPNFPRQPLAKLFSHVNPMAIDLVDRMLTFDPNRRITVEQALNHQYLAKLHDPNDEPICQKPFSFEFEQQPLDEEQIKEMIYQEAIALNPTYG

[3] = molecular target: T3, AtSE (SERRATE), yeast two-hybrid bait (Arabidopsis thaliana) (UniProt Q9ZVD0)
T3 sequence: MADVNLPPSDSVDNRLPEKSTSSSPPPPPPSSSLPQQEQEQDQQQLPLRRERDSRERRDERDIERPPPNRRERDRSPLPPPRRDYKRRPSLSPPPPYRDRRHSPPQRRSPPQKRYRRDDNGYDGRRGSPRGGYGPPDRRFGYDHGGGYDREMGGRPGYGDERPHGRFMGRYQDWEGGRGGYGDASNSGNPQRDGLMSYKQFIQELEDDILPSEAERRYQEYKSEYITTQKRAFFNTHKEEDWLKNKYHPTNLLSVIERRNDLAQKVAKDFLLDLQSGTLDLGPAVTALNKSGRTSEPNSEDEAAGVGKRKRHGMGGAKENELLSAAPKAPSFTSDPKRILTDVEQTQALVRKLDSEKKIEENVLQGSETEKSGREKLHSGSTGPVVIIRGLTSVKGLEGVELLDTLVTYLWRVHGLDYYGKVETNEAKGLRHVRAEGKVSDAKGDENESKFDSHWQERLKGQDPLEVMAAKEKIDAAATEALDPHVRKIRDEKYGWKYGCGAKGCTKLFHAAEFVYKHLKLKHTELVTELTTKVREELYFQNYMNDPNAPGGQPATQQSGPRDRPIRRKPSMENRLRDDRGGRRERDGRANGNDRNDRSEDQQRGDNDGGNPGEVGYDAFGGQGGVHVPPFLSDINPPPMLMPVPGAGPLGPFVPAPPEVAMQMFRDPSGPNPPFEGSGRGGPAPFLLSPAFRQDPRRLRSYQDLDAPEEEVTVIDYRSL

Binder	binding [1]	binding [2]	binding [3]
AtHYL1FL (full-length Arabidopsis thaliana HYPONASTIC LEAVES 1 / Double-stranded RNA Binding protein 1), yeast two-hybrid AD fusion (protein, UniProt O04492 1-419) MTSTDVSSGVSNCYVFKSRLQEYAQKYKLPTPVYEIVKEGPSHKSLFQSTVILDGVRYNSLPGFFNRKAAEQSAAEVALRELAKSSELSQCVSQPVHETGLCKNLLQEYAQKMNYAIPLYQCQKVETLGRVTQFTCTVEIGGIKYTGAATRTKKDAEISAGRTALLAIQSDTKNNLANYNTQLTVLPCEKKTIQAAIPLKETVKTLKARKAQFKKKAQKGKRTVAKNPEDIIIPPQPTDHCQNDQSEKIETTPNLEPSSCMNGLKEAAFGSVETEKIETTPNLEPPSCMNGLKEAAFGSVETEKIETTPNLEPPSCMNGLKEAAFGSVETEKIETTPNLEPSSCMNGLKEAAFGSVETEKIETTPNLEPPSCMNGLKEAAFGSVETEKIETTPNLESSSCMSGLKEAAFGSVETEASHA	binds	binds	–
AtHYL1N (N-terminal fragment of AtHYL1, 1-170 AA), yeast two-hybrid AD fusion (domain or fragment, UniProt O04492 1-170) MTSTDVSSGVSNCYVFKSRLQEYAQKYKLPTPVYEIVKEGPSHKSLFQSTVILDGVRYNSLPGFFNRKAAEQSAAEVALRELAKSSELSQCVSQPVHETGLCKNLLQEYAQKMNYAIPLYQCQKVETLGRVTQFTCTVEIGGIKYTGAATRTKKDAEISAGRTALLAIQS	binds	binds	binds
AtHYL1C (C-terminal fragment of AtHYL1, 171-419 AA), yeast two-hybrid AD fusion (domain or fragment, UniProt O04492 171-419) DTKNNLANYNTQLTVLPCEKKTIQAAIPLKETVKTLKARKAQFKKKAQKGKRTVAKNPEDIIIPPQPTDHCQNDQSEKIETTPNLEPSSCMNGLKEAAFGSVETEKIETTPNLEPPSCMNGLKEAAFGSVETEKIETTPNLEPPSCMNGLKEAAFGSVETEKIETTPNLEPSSCMNGLKEAAFGSVETEKIETTPNLEPPSCMNGLKEAAFGSVETEKIETTPNLESSSCMSGLKEAAFGSVETEASHA	binds	binds	–
